Inconclusive means that the source gave no clear call. Such entries were picked first, then a sample of the others. Potencies of inconclusive entries are doubtful fits and often do not repeat. The source made the active and inactive calls. The call rests on the fitted dose curve; in most records, active means well fitted inhibition curve with a large enough effect; inconclusive means small, poorly fitted or top-dose-only effect; inactive means flat fitted curve, though single readings scatter.
Each compound was assayed against Ferritin light chain (Equus caballus) (UniProt P02791) (assay: Confirmation Assay for Identification of Novel General Anesthetics). Conditions: apoferritin 1-aminoanthracene fluorescence displacement.
In short: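 Competitive displacement of profluorescent 1-aminoanthracene from 10 uM horse-spleen apoferritin in 50% saturated 1-AMA/PBS; 10 min RT, fluorescence Ex 380/Em 535. Normalized to free 1-AMA and complex; four-parameter Hill fit.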
Further: nearly all actives have a fitted effect of over 40% in size.
Potency means the concentration at half of the fitted maximal effect.

Amino acid sequences for entries named in this document (tags omitted). Residues count along the entry.
UniProt P02791, 2-175 limits assumed: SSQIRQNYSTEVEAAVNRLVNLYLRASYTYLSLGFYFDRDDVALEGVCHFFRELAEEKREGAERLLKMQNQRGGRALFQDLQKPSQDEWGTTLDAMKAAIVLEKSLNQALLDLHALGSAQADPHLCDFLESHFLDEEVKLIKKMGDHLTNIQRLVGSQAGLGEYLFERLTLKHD

| Compound | Potency |
| --- | --- |
| Cc1ccc(C)c(-c2ccc(=O)n(Cc3c(F)cccc3Cl)n2)c1 | inconclusive: 31.6 µM [inhibitor, partial curve] |
| O=C(C1COc2ccccc2O1)N1CCc2ccccc21 (centres undefined) | inconclusive: 35.5 µM [inhibitor, partial curve] |
| O=C(OCC(=O)N1CCc2ccccc21)c1ccccc1 | inconclusive: 39.8 µM [inhibitor, partial curve] |
| CCc1ccc(NC(=O)N2CCCCCC2)cc1 | inconclusive: 7.08 µM [inhibitor, full curve] |
| Fc1cccc(Cl)c1CSc1nnc(CNc2ccccc2)o1 | inconclusive: 20 µM [inhibitor, partial curve] |
| Cc1ccc(Oc2ccc(NC(=O)c3ccco3)cc2)cc1 | inconclusive: 31.6 µM [inhibitor, partial curve] |
| CCc1cccc(C)c1NS(=O)(=O)Cc1ccccc1 | inconclusive: 22.4 µM [inhibitor, partial curve] |
| O=C(COC(=O)c1cnccn1)c1ccc2c(c1)CCCC2 | inconclusive: 35.5 µM [inhibitor, partial curve] |
| CC1(C)CC(=O)c2c(noc2-c2ccccc2)C1 | active: 17.8 µM |
| Nc1cc(N)nc(SCC(=O)N2CCc3ccccc32)n1 | active: 7.08 µM |
| COc1cccc(C(=O)COC(=O)CCC(=O)c2ccccc2)c1 | active: 7.94 µM |
| N#Cc1cccc(NC(=O)CC2CCCCC2)c1 | inconclusive: 22.4 µM [inhibitor, partial curve] |
| O=S(=O)(Cc1ccccc1Cl)NCCc1ccccc1 | inconclusive: 22.4 µM [inhibitor, partial curve] |
| Cc1cccc(OCC(=O)N2CCCc3ccccc32)c1 | inconclusive: 28.2 µM [inhibitor, partial curve] |
| Clc1ccc(-c2ccn[nH]2)cc1 | inconclusive: 31.6 µM [inhibitor, partial curve] |
| Cc1cccc(NC(=O)C23CCC(C)(C2Br)C3(C)C)c1 (centres undefined) | inconclusive: 8.91 µM [inhibitor, full curve] |
| Cc1cc(O)ccc1-c1cnc2ccccc2n1 | inconclusive: 35.5 µM [inhibitor, partial curve] |
| Cc1ccc(SCC(=O)c2ccc[nH]2)cc1 | inconclusive: 28.2 µM [inhibitor, partial curve] |
| COc1cnc(SCc2ccc(Cl)c(Cl)c2)nc1Cl | inconclusive: 17.8 µM [inhibitor, partial curve] |
| Cc1ccc(NCc2ccccc2)cc1 | active: 10 µM |
| O=C(CCNc1cc(Cl)cc(Cl)c1)c1cccs1 | inconclusive: 25.1 µM [inhibitor, partial curve] |
| N#CCc1ccc(Oc2ncc(C(F)(F)F)cc2Cl)cc1 | active: 17.8 µM |
| CC(Nc1ccccc1)c1cccnc1 (centres undefined) | active: 15.8 µM |
| COc1ccc(C(=O)COc2nc(C)cc(C)c2C#N)cc1 | inconclusive: 31.6 µM [inhibitor, partial curve] |

Single entries from the results shown.
In Potency, Cc1ccc(NCc2ccccc2)cc1 is listed with active: 10 µM
In Potency, O=C(COC(=O)c1cnccn1)c1ccc2c(c1)CCCC2 is listed with inconclusive: 35.5 µM [inhibitor, partial curve]

Reference: PubChem BioAssay AID489008 (National Center for Advancing Translational Sciences (NCATS), 2010)
